Publication PMC10442929
Results are given in words; binding and its absence hold for the method and conditions named. Binding seen in cells or lysates may run through a third protein. Some results given as binding are weak or reduced against the parent protein; the word gives no strength. Sequences can lack the tags named with a protein.

Chains of the proteins cited; added tags and fusions are not shown. Lines headed by an entry give the natural chain unless they say otherwise; changes in a name come on top.
UniProt P61829: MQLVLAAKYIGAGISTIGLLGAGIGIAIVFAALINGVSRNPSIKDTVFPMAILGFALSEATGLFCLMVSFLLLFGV

T1: mitochondrially encoded Cox6 with a C-terminal protein C tag (product of COX6-C^m) (S. cerevisiae) (UniProt P61829+P00427)
T1 sequence (chain, 35S-methionine/cysteine label): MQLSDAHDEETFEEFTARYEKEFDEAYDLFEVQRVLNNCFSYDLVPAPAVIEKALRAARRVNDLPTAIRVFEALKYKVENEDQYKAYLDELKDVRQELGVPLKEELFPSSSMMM


Experiments:
[1] = molecular target: T1, mitochondrially encoded Cox6 with a C-terminal protein C tag (product of COX6-C^m) (S. cerevisiae); test: co-IP; mitochondria labelled with 35S-methionine/cysteine for 20 min, extracted with 2% digitonin, purified on protein C antibody beads; eluate on 12% SDS-PAGE, autoradiography
[2] = molecular target: T1, mitochondrially encoded Cox6 with a C-terminal protein C tag (product of COX6-C^m) (S. cerevisiae); test: co-IP + native gel or EMSA; digitonin extract of 35S-labelled mitochondria purified on protein C beads, then BN-PAGE (4-13%) in the first and SDS-PAGE (12%) in the second dimension, autoradiography

Row | Molecule | binding [1] | binding [2]
1 | Atp9 subunit of the ATP synthase (from UniProt P61829 1-76) | binds | binds
2 | mitochondrially encoded Cox6 with a C-terminal protein C tag (product of COX6-C^m) (protein, UniProt P61829 1-3; P00427 41-148, 35S-methionine/cysteine label) MQLSDAHDEETFEEFTARYEKEFDEAYDLFEVQRVLNNCFSYDLVPAPAVIEKALRAARRVNDLPTAIRVFEALKYKVENEDQYKAYLDELKDVRQELGVPLKEELFPSSSMMM |  | no binding
